PubChem BioAssay AID1224830 – NIAID | 2016
Assay: 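Genes whose knock-down alters the TNF-alpha reporter response to LPS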 (primary screen). Cell system: human THP-1 monocytic leukaemia cells, TNF dual-luciferase reporter clone, PMA-differentiated to macrophage-like cells. Knock-down reagent: siRNA pool against human genes, 50 nM. Timing: LPS for 4 h, given about 3 days after siRNA transfection. Conditions: bacterial LPS (TLR4 ligand), 10 ng/ml. Detection: 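Ratio of firefly to renilla light, scaled to the plate median and expressed as a robust z-score per replicate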. Scale: TNF reporter robust z-score: higher = stronger TNF reporter response to LPS. Active means: 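a well is active when its z-score exceeds 2.8 or falls below -1.5; control wells carry no call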.
Here is an unselected part of about 18,000 reagents tested. About 2,900 of all reagents (16%) count as active. 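Calls are made per well; low scores hint the gene aids the LPS response, high scores that it dampens it.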 A number with no mark means an inactive call. Repeated entries: four replicate wells of each siRNA pool. Reagent sequences are not shown.

gene	TNF reporter robust z-score
LRRC8C	1.01
LRRC8C	-0.88
LRRC8C	-0.68
LRRC8C	0.26
SS18L1	-0.1
SS18L1	-0.44
SS18L1	0.04
SS18L1	-0.72
VPS29	-0.32
VPS29	0.06
VPS29	-0.48
VPS29	0.76
RAB37	0.73
RAB37	0.78
RAB37	0.03
TRAF2	-0.26
TRAF2	-0.29
TRAF2	-0.71
TRAF2	-0.59
TLR9	0.71
TLR9	3.12 (active)
TLR9	2.55
TLR9	2.72
PDGFRL	-1.83 (active)
PDGFRL	-0.63
PDGFRL	-0.4
PDGFRL	-0.32
MAGEA8	-0.65
MAGEA8	-1.26
MAGEA8	-1
MAGEA8	-1.17
GATC	-1.17
GATC	-0.55
GATC	-1.36
GATC	-0.67
ABCG8	0.16
ABCG8	0.23
ABCG8	0.01
ABCG8	-0.36
RSPRY1	-0.78
RSPRY1	3.48 (active)
RSPRY1	-1.43
RSPRY1	0.53
RPAP1	-0.02
RPAP1	-0.17
RPAP1	0.13
RPAP1	0.91
KCNJ10	0.48
KCNJ10	0.92
KCNJ10	0.56
KCNJ10	0.8
CLDN1	-0.27
CLDN1	1.35
CLDN1	0.73
CLDN1	-0.08
ATP2B1	1.09
ATP2B1	1.48
ATP2B1	1.77
ATP2B1	0.54
SPMIP6	0.71
SPMIP6	-0.1
SPMIP6	0.42
SPMIP6	0.57
IZUMO4	0.71
IZUMO4	0.78
IZUMO4	0.09
IZUMO4	0.77
CBLN2	-0.86
CBLN2	-0.34
CBLN2	-0.31
CBLN2	0.39
OPHN1	0.64
OPHN1	1.71
OPHN1	1.57
OPHN1	0.57
CHAC1	3.68 (active)
CHAC1	1.31
CHAC1	0.26
CHAC1	1.01
HORMAD2	-1.34
HORMAD2	-0.55
HORMAD2	-1.33
HORMAD2	-0.41
HPRT1	-1.08
HPRT1	0.14
HPRT1	-1.07
HPRT1	-1.13
SEH1L	-1.04
SEH1L	-0.86
SEH1L	-1.02
DPH5	0.28
DPH5	0.2
DPH5	0.15
DPH5	0.87
FATE1	-0.18
FATE1	1.16
FATE1	0.3
FATE1	0.54
SLC5A4	-0.87
SLC5A4	-0.45
SLC5A4	-0.11
SLC5A4	-0.06
TUBGCP4	-0.74
TUBGCP4	0.28
TUBGCP4	0.07
TUBGCP4	1.1
GNG7	0.19
GNG7	0.42
GNG7	-0.02
GNG7	0.35

Reagents listed so far with an active call:
gene	TNF reporter robust z-score
TLR9	3.12 (active)
PDGFRL	-1.83 (active)
RSPRY1	3.48 (active)
CHAC1	3.68 (active)
